According to patent US11129879B2, “Methods for the treatment of neurological disorders and diseases using FNDC5” (Dana-Farber Cancer Institute, Inc., priority 2013, dated 2021):
At least one compound was matched to its structure with a doubt left.

Tests used:
[1] = test system: primary cortical neurons; test: gene expression by qPCR in cultured primary cortical neurons; type: cell-based, mouse; settings: overnight, DIV 7, vs vehicle
Procedure: (§1) Primary cortical and hippocampal neurons were isolated as described in great detail previously in Bartlett and Banker (1984) J. Neurosci. 4, 1944-1953. Briefly, cortices and hippocampi were dissected from E16-E18 embryos, dissociated with trypsin (Sigma) and DNAse (Roche), and plated on poly-L-lysine-coated (Sigma) plates. Dissociated neurons were cultured in Neurobasal Media supplemented with B27, GlutaMAX™ (Life Technologies), and Penicillin-Streptomycin (Cellgro).
(§2) Cells or tissues were lysed and homogenized in TRIzol (Invitrogen). Total RNA was subsequently isolated using the RNeasy Mini or Micro Kit (Qiagen). First-strand cDNA was generated using the High Capacity cDNA Reverse Transcription Kit (Life Technologies), and qPCR was performed using SYBR Green Master Mix in a 7900HT Real-Time PCR system (Applied Biosystems). mRNA quantities were normalized to Rsp18 after determination by the comparative Ct method (Schmittgen and Livak (2008) Nat. Protocols 3, 1101-1108).
Primary cortical neurons were transduced at the indicated time-points and were harvested 48 hrs later for RNA isolation. For knockdown studies, primary cortical neurons were transduced with viral supernatants from HEK293T cells transfected with pLKO.1 vector (TRC) containing the specified shRNAs at the indicated time-points.

[2] = test system: primary hippocampal neurons; test: gene expression by qPCR in cultured primary hippocampal neurons; type: cell-based, mouse; settings: 10 μM, overnight, DIV 7, vs vehicle
Procedure: At the indicated days in vitro (DIV) mRNA was prepared and gene expression was assessed by qPCR. Data are shown as mRNA levels relative to Rsp18 expression, expressed as mean±SEM. *P<0.05 compared to DIV 1 control group. […] Forty-eight hours later mRNA was prepared and gene expression was assessed by qPCR. Data are shown as mRNA levels relative to Rsp18 expression, expressed as mean±SEM. *P<0.05 compared to corresponding GFP expressing control group. […] Four days later mRNA was prepared and gene expression was assessed by qPCR. Data are shown as mRNA levels relative to Rsp18 expression, expressed as mean±SEM. *P<0.05 compared to corresponding shLuc expressing control group. […] Data are shown as mRNA levels relative to Rsp18 expression, expressed as mean±SEM. *P<0.05 compared to vehicle only group. […] Four days later mRNA was prepared and gene expression was assessed by qPCR. Data are shown as mRNA levels relative to Rsp18 expression, expressed as mean±SEM. *P<0.05 compared to corresponding shLuc expressing control group. […] Data are shown as mRNA levels relative to Rsp18 expression, expressed as mean±SEM. *P<0.05 compared to vehicle only group.
as §1
as §2, with “Total RNA was subsequently isolated using the RNeasy Mini or Micro Kit (Qiagen).” left out

[3] = test system: SH-SSY5Y neurons; test: Fndc5 gene expression by qPCR in SH-SSY5Y neurons; type: cell-based, human; settings: during differentiation with retinoic acid
Procedure: The cells were differentiated with retinoic acid. Gene expression was assessed with qPCR.

## C=C[C@@]1(C)CC(=O)[C@]2(O)[C@@]3(C)[C@@H](O)CCC(C)(C)[C@@H]3[C@H](O)[C@H](OC(C)=O)[C@@]2(C)O1 [forskolin, reference compound]
[1]; 10 μM
  Fndc5 gene expression: significant increase in Fndc5 gene expression
  Pgc1a gene expression: increase in Pgc1a gene expression
[2]
  Erra expression: decreased the expression of Erra and Fndc5
  Fndc5 expression: decreased the expression of Erra and Fndc5
  Pgc1a gene expression: failed to induce Pgc1a gene expression

## COC(=O)C1=C(C)NC(C)=C(C(=O)OC)C1c1ccccc1[N+](=O)[O-] [nifedipine]
[1]; 5 μM
  Fndc5 gene expression: decreased Fndc5 gene expression
  Pgc1a gene expression: decreased Pgc1a gene expression

## CC1=C(/C=C/C(C)=C/C=C/C(C)=C/C(=O)O)C(C)(C)CCC1 [retinoic acid]
[3]
  Fndc5 gene expression: Fndc5 gene expression increases during differentiation
